# Some entries share one result that the patent states for a list of compounds. Some compounds share one range, which may span the group rather than tell each member.
# Biological target: T1, TXA2 receptors (Homo sapiens, UniProt P21731)
# T1 construct: endogenous in cells; host or cells: human platelets
# T1 sequence (P21731 1-343): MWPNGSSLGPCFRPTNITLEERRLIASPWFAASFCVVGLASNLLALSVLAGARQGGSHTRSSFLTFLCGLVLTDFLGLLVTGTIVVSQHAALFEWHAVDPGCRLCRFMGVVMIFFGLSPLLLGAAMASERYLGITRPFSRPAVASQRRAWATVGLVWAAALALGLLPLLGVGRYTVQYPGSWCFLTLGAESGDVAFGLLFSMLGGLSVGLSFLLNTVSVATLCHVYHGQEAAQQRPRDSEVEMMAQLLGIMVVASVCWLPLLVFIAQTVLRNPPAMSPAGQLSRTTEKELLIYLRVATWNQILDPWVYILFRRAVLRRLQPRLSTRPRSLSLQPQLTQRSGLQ
# Experiment: human platelet binding assay ([125I]PTA-OH as receptor ligand)
# Details: [125I]PTA-OH ligand, read-out: IC50 (concentration which produces a 50% inhibition of specific [125I]PTA-OH binding)
row,Structure (SMILES),IC50
1,"O=C(O)CCCc1ccc(NS(=O)(=O)c2ccccc2)cc1 [Example 1, 4-[4-(Phenylsulphonamido)phenyl]butyric acid]",20 to 600 nM
2,"O=C(O)CCCc1ccc(NS(=O)(=O)c2ccc(Cl)cc2)cc1 [Example 2, 4-[4-(4-Chlorophenylsulphonamido)phenyl]butyric acid]",20 to 600 nM
3,"COc1ccc(S(=O)(=O)Nc2ccc(CCCC(=O)O)cc2)cc1 [Example 3, 4-[4-(4-Methoxyphenylsulphonamido)phenyl]butyric acid]",20 to 600 nM
4,"O=C(O)CCCc1ccc(NS(=O)(=O)c2ccc(Br)cc2)cc1 [Example 4, 4-[4-(4-Bromophenylsulphonamido)phenyl]butyric acid]",20 to 600 nM
